No constants are given. Whether binding was seen depends on the method and setting. Binding seen in cells or lysates may run through a third protein. Some entries that bind do so weakly or less than the wild type.
Molecular target: ADP-Ribosylation Factor 6 (Drosophila (endogenous in imaginal discs)) (UniProt P40946)
Experiment: co-IP; lysates of imaginal discs from 50 third-instar animals with Ras^V12 clones (also Egfr^Top-CA, Ras^V12 or EGFR-DN, Ras^V12 double mutant clones); lysis buffer 50 mM HEPES pH 7.5, 150 mM KCl, 5 mM MgCl2, 0.01% Triton-X; anti-Arf6 4 h at 4 °C, protein A agarose beads; washed in buffer with 0.5% TritonX-100; blotted with anti-Hh

Chains of the proteins cited; added tags and fusions are not shown. Residues count along the entry.
UniProt P40946: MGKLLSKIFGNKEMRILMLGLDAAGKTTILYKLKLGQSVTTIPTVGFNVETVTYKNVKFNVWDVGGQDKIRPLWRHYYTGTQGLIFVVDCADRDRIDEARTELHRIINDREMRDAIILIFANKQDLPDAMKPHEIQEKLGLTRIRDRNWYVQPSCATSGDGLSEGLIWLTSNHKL
UniProt Q02936, residues 85-471: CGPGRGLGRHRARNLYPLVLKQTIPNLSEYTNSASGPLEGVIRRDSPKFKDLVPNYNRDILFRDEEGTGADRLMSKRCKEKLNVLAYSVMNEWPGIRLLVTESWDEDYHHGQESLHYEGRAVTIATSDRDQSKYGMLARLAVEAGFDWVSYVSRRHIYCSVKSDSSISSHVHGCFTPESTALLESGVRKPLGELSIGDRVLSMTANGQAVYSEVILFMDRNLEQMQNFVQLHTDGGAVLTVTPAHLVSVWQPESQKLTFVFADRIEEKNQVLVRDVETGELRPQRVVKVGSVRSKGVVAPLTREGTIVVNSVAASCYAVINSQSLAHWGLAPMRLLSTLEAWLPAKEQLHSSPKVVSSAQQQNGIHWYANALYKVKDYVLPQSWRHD

With Hedgehog (from UniProt Q02936 85-471) the binding was “binds”.

Reference: publication PMC5353614
